For 1 molecule, binding results are on record in paper PMC5586024.

The chains behind the UniProt entries cited, without tags or fusion partners. Where a name states a change or a piece, a line headed by the entry shows the natural chain unless it says otherwise.
UniProt P10637: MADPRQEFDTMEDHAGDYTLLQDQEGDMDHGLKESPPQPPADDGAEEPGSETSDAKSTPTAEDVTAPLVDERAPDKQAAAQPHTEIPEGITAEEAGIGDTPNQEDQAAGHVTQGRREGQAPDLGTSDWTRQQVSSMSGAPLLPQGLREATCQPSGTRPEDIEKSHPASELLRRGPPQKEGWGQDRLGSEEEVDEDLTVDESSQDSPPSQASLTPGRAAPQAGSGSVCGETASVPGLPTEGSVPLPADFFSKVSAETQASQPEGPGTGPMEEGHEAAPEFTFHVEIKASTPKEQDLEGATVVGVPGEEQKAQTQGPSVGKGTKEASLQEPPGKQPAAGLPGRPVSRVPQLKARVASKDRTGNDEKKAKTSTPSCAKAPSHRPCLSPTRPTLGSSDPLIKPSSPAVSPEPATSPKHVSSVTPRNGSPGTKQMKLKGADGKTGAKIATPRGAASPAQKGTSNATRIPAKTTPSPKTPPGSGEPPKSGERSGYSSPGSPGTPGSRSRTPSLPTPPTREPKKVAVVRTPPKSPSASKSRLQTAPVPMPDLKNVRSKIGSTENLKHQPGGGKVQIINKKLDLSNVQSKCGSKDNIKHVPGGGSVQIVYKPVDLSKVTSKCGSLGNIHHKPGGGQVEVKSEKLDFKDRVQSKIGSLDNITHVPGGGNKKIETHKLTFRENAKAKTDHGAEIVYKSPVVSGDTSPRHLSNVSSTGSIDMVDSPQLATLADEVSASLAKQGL

Results are given in words; binding and its absence hold for the method and conditions named. Binding seen in cells or lysates may run through a third protein. For part of these data: Binding calls can cover weak binding; strength is not graded here.

In assay [1] the target is tau (mouse (endogenous in hippocampus)) (UniProt P10637). Nature of the assay: co-IP; tau oligomer antibody T22 coupled to NHS-activated magnetic beads; P2 fraction of the LFS-stimulated (ipsilateral) hippocampus of aged mice in HSB with 0.5% Triton X-100, overnight at 4 °C; SDS-PAGE and western blot.
Assay [2] has the same target. Nature of the assay: condition: only contralateral hippocampus, without LFS; co-IP; as a1, but P2 fraction of the unstimulated contralateral (control) hippocampus of the same aged mice, without LFS.
Assay [3] shares this target. As to the kind of experiment: co-IP; as a1, but P2 fraction of the unstimulated contralateral (control) hippocampus of the same aged mice, without LFS.

B1: NDP52 (protein, UniProt A2A6M5 1-331)
chain: MDQCPIPTLLEHGNFSQVLFNNVEKFYAPRGDIMCYYTLTEKFIPRRKDWIGIFKVGWKTTQEYYTFMWAPLPKDQNKDSATQQEIQFKAYYLPKDVERYQFCYVDEDGLVRGTSVPFQFCPDPDEDIMVVINKEKVEEMEQLSEELYQQNQELKDKYADLHEQLQRKQVALEATQRVNKTLEHKVEEKASWEKEKASWEEEKASWEEEKASWEEEKASWEEEKASWEEEKASWEEEKASWEEEKASWEEEKASWEEEKASWEEEKASWEEEKASWEEEKASWEEEKASWEKEKASWEEEKASWEKEKAPWEVEKAPWKEVKAYWWNDLHR
As to B1, the values for the binding result in assay [1], in assay [2] and in assay [3] were “binds”, “no binding” and “binds weakly”, respectively.
